# The supplement of paper PMC10689618
# Counter-ions that a name gives are not always drawn. This is one part of the list. Single values are uncertain, as repeats are few or missing.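 Primary human fetal astrocytes engulfed labelled rat cortical synaptosomes, measured as a red/green ratio corrected for calcein live-cell signal and scaled to the plate median. Toxicity meant calcein falling over 30%; decreased phagocytosis meant below 70% of median above 5 µM.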
# Legend:
# Human fetal astrocytes [1] = test: loss of total cells relative to no-compound high-control median (toxicity); higher = more toxic (fewer cells); details: 24 h
# Human fetal astrocytes [2] = test: synaptosome phagocytosis (pHrodo/calcein intensity ratio) relative to plate median of data wells; higher = more phagocytosis; details: 24 h
SMILES,loss of total cells (Human fetal astrocytes [1]; 1.39 µM) [%],loss of total cells (Human fetal astrocytes [1]; 2.78 µM) [%],loss of total cells (Human fetal astrocytes [1]; 5.56 µM) [%],loss of total cells (Human fetal astrocytes [1]; 11.11 µM) [%],loss of total cells (Human fetal astrocytes [1]; 22.22 µM) [%],synaptosome phagocytosis (Human fetal astrocytes [2]; 1.39 µM) [%],synaptosome phagocytosis (Human fetal astrocytes [2]; 2.78 µM) [%],synaptosome phagocytosis (Human fetal astrocytes [2]; 5.56 µM) [%],synaptosome phagocytosis (Human fetal astrocytes [2]; 11.11 µM) [%],synaptosome phagocytosis (Human fetal astrocytes [2]; 22.22 µM) [%]
C[C@]12C=CC(=O)C=C1CC[C@H]1[C@@H]3C[C@@H](O)[C@](O)(C(=O)CO)[C@@]3(C)C[C@H](O)[C@@]12F,-16.9,-13.2,-46,-13,-12.5,102,116,117,125,101
COc1c(-c2coc3cc4c(cc3c2=O)CC(O)C(C)(C)O4)ccc2c1C=CC(C)(C)O2 (stereo not given),-32.2,4.7,27.5,25.2,40.4,81.3,108,112,86.7,75.7
COc1cc(O)c(C(C)=O)c(O)c1,-4.1,1.8,-0.7,17.6,25.9,86.1,107,101,97.1,130
CC(=O)O[C@H]1CC[C@@]2(C)[C@@H](CC[C@@H]3[C@@H]2CC(=O)[C@]2(C)[C@@H]4[C@H](C[C@@H]32)O[C@]2(CC[C@@H](C)CO2)[C@H]4C)C1,-23.6,-2.7,-19.8,-11,-17.4,98.1,94.2,102,87.6,122
COc1cc2c(cc1OC)C1(O)C(=O)c3ccc(O)c(C(=O)O)c3OC1CO2 (stereo not given),12,-17.3,27.5,-5.2,1.1,121,116,155,97.8,102
CN(C)CCC=C1c2ccccc2COc2ccccc21 [Doxepin],3.9,-3.1,0,1.4,-10,94.6,99.1,50.8,88.9,90
COC(=O)CC[C@@H](C)[C@H]1CC[C@H]2[C@@H]3[C@H](O)C[C@@H]4C[C@H](O)CC[C@]4(C)[C@H]3C[C@H](O)[C@]12C,-8.2,-17,1.5,20.9,6.7,120,98.9,90,141,137
NC(=O)N1c2ccccc2CC(=O)c2ccccc21 [Trileptal],16.9,-41.3,7.5,50.8,10.3,144,94.9,122,133,120
CCC1(C)OC(=O)N(C)C1=O (stereo not given),-24.1,-24.7,-7.5,-22.7,-0.6,110,107,112,120,94.4
Nc1ccn([C@@H]2O[C@H](CO)[C@@H](O)[C@H]2O)c(=O)n1,-0.4,2,-12.2,43.9,-21.9,109,108,89.1,156,135
COc1ccc(C(=O)c2ccccc2)c(O)c1,-0.8,-4,2.7,8.6,12.5,83.2,112,94.7,88.8,78
COc1cc(O)cc(OC)c1OC,-12,2.7,-12.2,1.3,15.9,96.9,93.7,69.3,93.4,90.6
CCCCCC(=O)Cc1cc(O)cc(O)c1C(=O)Oc1cc(CC(=O)CCCCC)c(C(=O)O)c(OC)c1,27.2,2,-18.3,48.4,6.3,149,112,92.1,147,113
CCOc1ccc2nc(S(N)(=O)=O)sc2c1,12.1,-37.3,19.3,-10.2,1.6,165,103,115,90.7,115
O=S(=O)(O)CCS,25,-23.8,-8.1,39,5.3,149,107,102,125,89.2
CC(=O)O[C@@H]1C=C[C@]2(C)C(C[C@@H](OC(C)=O)[C@]3(C)C4=CC(=O)O[C@H](c5ccoc5)[C@@]4(C)CCC23)C1(C)C (stereo not given in full),-4.7,10.5,5.8,-5.4,12.1,81.8,113,83.4,100,60.1
CC[C@H](CC[C@@H](C)[C@H]1CC[C@H]2[C@@H]3CC=C4C[C@@H](O)CC[C@]4(C)[C@H]3CC[C@]12C)C(C)C,-9.1,-8.6,41.2,1.9,30,106,82.4,152,95.5,148
CC1(C)S[C@@H]2[C@H](NC(=O)COc3ccccc3)C(=O)N2[C@H]1C(=O)O,9.8,-23.4,-11.1,-6.6,-10.6,92.1,146,145,126,107

SMILES,loss of total cells (Human fetal astrocytes [1]; 1.39 µM) [%],loss of total cells (Human fetal astrocytes [1]; 2.78 µM) [%],loss of total cells (Human fetal astrocytes [1]; 5.56 µM) [%],loss of total cells (Human fetal astrocytes [1]; 11.11 µM) [%],loss of total cells (Human fetal astrocytes [1]; 22.22 µM) [%],synaptosome phagocytosis (Human fetal astrocytes [2]; 1.39 µM) [%],synaptosome phagocytosis (Human fetal astrocytes [2]; 2.78 µM) [%],synaptosome phagocytosis (Human fetal astrocytes [2]; 5.56 µM) [%],synaptosome phagocytosis (Human fetal astrocytes [2]; 11.11 µM) [%],synaptosome phagocytosis (Human fetal astrocytes [2]; 22.22 µM) [%]
Cc1cc(=O)oc2c(O)c(O)ccc12,-8.2,3.2,8.8,34.5,35.6,81.3,109,50.6,62.6,58.9
CC(C)[C@H]1CC[C@H](C(=O)N[C@H](Cc2ccccc2)C(=O)O)CC1,-9.1,-4.6,13.5,-12.5,11.9,105,112,108,126,107
NCC[C@H](O)C(=O)N[C@@H]1C[C@H](N)[C@@H](O[C@H]2O[C@H](CN)[C@@H](O)[C@H](O)[C@H]2O)[C@H](O)[C@H]1O[C@H]1O[C@H](CO)[C@@H](O)[C@H](N)[C@H]1O,-16.6,-19.2,20.1,8.6,15.3,115,112,112,122,124
C/C=C/c1ccc(OC)cc1,-27.4,-21.4,-5,21.3,7.8,77.1,94.2,88.8,115,95.9
COc1ncnc(NS(=O)(=O)c2ccc(N)cc2)c1OC,9.1,13.1,-21.3,-10.2,-2.3,92.8,94.2,128,105,127
O=c1ccn([C@@H]2O[C@H](COP(=O)(O)OP(=O)(O)OP(=O)(O)O)[C@@H](O)[C@H]2O)c(=O)[nH]1,-13.9,-1.8,0.7,-2,18.5,136,135,120,112,122
N=C(N)N/N=C/c1c(Cl)cccc1Cl,-11,-7.1,-25.1,-5.5,39.2,126,112,132,75.4,84.3
NCCCNCCCCNCCCN [Spermine tetrahydrochloride],-2.5,15.5,29,17.2,7.6,108,73.2,22.6,63.6,63.6
O=C(O)c1cn(C2CC2)c2cc(N3CCNCC3)c(F)cc2c1=O,-33.9,-44.4,5,1,9.7,88.5,83.9,130,99.7,109
C#C[C@]1(O)CC[C@H]2[C@@H]3CCC4=CC(=O)CC[C@@H]4[C@H]3CC[C@@]21C,0,1.5,10.5,-2.3,21.5,87.9,123,96.7,88.1,110
COc1cc(OC)c2c(=O)c(-c3ccccc3)c(C)oc2c1OC,27.2,7.3,-17.6,31.6,21.1,127,112,114,124,169
Cn1c([N+](=O)[O-])cnc1COC(N)=O,-13.3,-0.9,-2.7,-26.6,5.7,117,110,93.8,111,114
Nc1ccc(C(=O)Oc2ccccc2)c(O)c1,-6.6,8.2,-3.9,7.8,-0.6,101,101,120,89.2,109
C=CCCCCCCCCC(=O)O,11.3,-46,-12.4,-14.1,0.3,138,104,118,85.9,99.5
COc1cc(C2Oc3cc([C@H]4Oc5cc(O)cc(O)c5C(=O)[C@@H]4O)ccc3OC2CO)ccc1O (stereo not given in full),17.7,0.4,20.3,6.3,25.8,107,85.9,144,114,150
COc1cc2nc(N(C)CCCNC(=O)C3CCCO3)nc(N)c2cc1OC (stereo not given),-25.8,-17.5,10.6,39.7,7.8,115,100,112,138,69.1
CC1=CC(=O)[C@H]2C(C)(C)CCC[C@]2(C)[C@@]1(O)CCc1ccoc1,-10.5,-5.3,29.8,45.8,-15.2,70.7,114,110,136,85.8
COc1cc(O)c(C)c(O)c1,24.9,21.3,14.5,-2.9,4.5,115,108,89.3,119,126

# Gathered by group: the entries above with a furan ring, fused or not.
SMILES,loss of total cells (Human fetal astrocytes [1]; 1.39 µM) [%],loss of total cells (Human fetal astrocytes [1]; 2.78 µM) [%],loss of total cells (Human fetal astrocytes [1]; 5.56 µM) [%],loss of total cells (Human fetal astrocytes [1]; 11.11 µM) [%],loss of total cells (Human fetal astrocytes [1]; 22.22 µM) [%],synaptosome phagocytosis (Human fetal astrocytes [2]; 1.39 µM) [%],synaptosome phagocytosis (Human fetal astrocytes [2]; 2.78 µM) [%],synaptosome phagocytosis (Human fetal astrocytes [2]; 5.56 µM) [%],synaptosome phagocytosis (Human fetal astrocytes [2]; 11.11 µM) [%],synaptosome phagocytosis (Human fetal astrocytes [2]; 22.22 µM) [%]
CC(=O)O[C@@H]1C=C[C@]2(C)C(C[C@@H](OC(C)=O)[C@]3(C)C4=CC(=O)O[C@H](c5ccoc5)[C@@]4(C)CCC23)C1(C)C (stereo not given in full),-4.7,10.5,5.8,-5.4,12.1,81.8,113,83.4,100,60.1
CC1=CC(=O)[C@H]2C(C)(C)CCC[C@]2(C)[C@@]1(O)CCc1ccoc1,-10.5,-5.3,29.8,45.8,-15.2,70.7,114,110,136,85.8
